PubChem BioAssay AID602196, INSERM, 2012
Assay: 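Genes whose knock-down alters cisplatin killing of lung cancer cells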. Cell system: human A549 lung cancer cells. Reagents: siRNA pair against human genes. Timing: 48 h transfection before cisplatin; time from cisplatin to read-out not stated. Conditions: cisplatin at a dose killing half of control-siRNA cells; exact dose and duration not given. Read-out: 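Shift in cisplatin death relative to control siRNA, from -50 (all cells die) to +50 (no cells die); siRNAs harmful on their own scored 0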. Scale: two-siRNA summed score (-2 to +2): higher = both siRNAs protect from cisplatin killing; -2 means both sensitise; mean protection from cisplatin (shift in death): higher = protection from cisplatin killing. Active means: 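siRNAs harmful alone (LDH or WST-1) get 0; others get +1 for less and -1 for more cisplatin killing; genes are active when the two siRNAs give the same sign, summing to ±2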. Meaning of the calls: active = both siRNAs shift cisplatin killing the same way; inactive = no consistent shift, or siRNA harmful alone.
Shown is an unselected part of about 23,000 reagents tested. 455 of them (2%) were called active. 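Active includes both protection and sensitisation; some change values fall well beyond the stated -50 to +50 range.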 Not all columns of the deposit are shown. No sequences are given here. The record does not give: the amount of reagent.

After knock-down of KIAA0232, the screen gave two-siRNA summed score (-2 to +2) = 1; mean protection from cisplatin (shift in death) (%) = 20; inactive.
With knock-down of LOC441482, the record shows two-siRNA summed score (-2 to +2) = -1; mean protection from cisplatin (shift in death) (%) = 1.4; inactive.
Against MIMS1, the values are two-siRNA summed score (-2 to +2) = 0; mean protection from cisplatin (shift in death) (%) = 0; inactive.
For LOC390533, the values are two-siRNA summed score (-2 to +2) = 1; mean protection from cisplatin (shift in death) (%) = 18.9; inactive.
Against CAPRIN1, the values are two-siRNA summed score (-2 to +2) = 0; mean protection from cisplatin (shift in death) (%) = -2; inactive.
CCM2L gave two-siRNA summed score (-2 to +2) = 0; mean protection from cisplatin (shift in death) (%) = -9.9; inactive.
Knock-down of KRT33A gave: two-siRNA summed score (-2 to +2) = 0; mean protection from cisplatin (shift in death) (%) = 17; inactive.
For TNFRSF10A-DT, the entry reads two-siRNA summed score (-2 to +2) = 0; mean protection from cisplatin (shift in death) (%) = 8.8; inactive.
Against TAS2R9, the values are two-siRNA summed score (-2 to +2) = -1; mean protection from cisplatin (shift in death) (%) = 5; inactive.
DSCAML1 scored two-siRNA summed score (-2 to +2) = 0; mean protection from cisplatin (shift in death) (%) = -10.8; inactive.
LOC440246 showed two-siRNA summed score (-2 to +2) = 1; mean protection from cisplatin (shift in death) (%) = 10.4; inactive.

Quoted from above (2 entries):
DSCAML1 | two-siRNA summed score (-2 to +2) = 0; mean protection from cisplatin (shift in death) (%) = -10.8; Outcome = inactive
LOC440246 | two-siRNA summed score (-2 to +2) = 1; mean protection from cisplatin (shift in death) (%) = 10.4; Outcome = inactive

Further entries follow.
For TASL, the entry reads two-siRNA summed score (-2 to +2) = -1; mean protection from cisplatin (shift in death) (%) = -0.4; inactive.
COL7A1 gave two-siRNA summed score (-2 to +2) = 0; mean protection from cisplatin (shift in death) (%) = 16.4; inactive.
Against S100A11 the deposit lists two-siRNA summed score (-2 to +2) = 1; mean protection from cisplatin (shift in death) (%) = 4.6; inactive.
After knock-down of PLA2G4C, the record shows two-siRNA summed score (-2 to +2) = 0; mean protection from cisplatin (shift in death) (%) = 4.9; inactive.
GRB7 scored two-siRNA summed score (-2 to +2) = -1; mean protection from cisplatin (shift in death) (%) = -9.5; inactive.
Depletion of PPP2R2B resulted in: two-siRNA summed score (-2 to +2) = 0; mean protection from cisplatin (shift in death) (%) = 10; inactive.
After knock-down of KIAA1394, the screen gave two-siRNA summed score (-2 to +2) = 0; mean protection from cisplatin (shift in death) (%) = 24.2; inactive.
For ATG2A, the values are two-siRNA summed score (-2 to +2) = 1; mean protection from cisplatin (shift in death) (%) = 8.7; inactive.
DYNC2H1 showed two-siRNA summed score (-2 to +2) = 1; mean protection from cisplatin (shift in death) (%) = 10.1; inactive.
For AGPAT2 the deposit lists two-siRNA summed score (-2 to +2) = 1; mean protection from cisplatin (shift in death) (%) = 21; inactive.
With knock-down of LOC389832 the results were two-siRNA summed score (-2 to +2) = 0; mean protection from cisplatin (shift in death) (%) = -1.3; inactive.
For CHMP1B, the values are two-siRNA summed score (-2 to +2) = 0; mean protection from cisplatin (shift in death) (%) = -5.5; inactive.
Knock-down of CAPN14 resulted in: two-siRNA summed score (-2 to +2) = 0; mean protection from cisplatin (shift in death) (%) = 3.7; inactive.
GBP4 showed two-siRNA summed score (-2 to +2) = 0; mean protection from cisplatin (shift in death) (%) = 1.6; inactive.
Depletion of KLRB1 resulted in: two-siRNA summed score (-2 to +2) = 0; mean protection from cisplatin (shift in death) (%) = 0.5; inactive.
CDC5L scored two-siRNA summed score (-2 to +2) = 0; mean protection from cisplatin (shift in death) (%) = -5.1; inactive.
After knock-down of UGT3A2 the results were two-siRNA summed score (-2 to +2) = 0; mean protection from cisplatin (shift in death) (%) = -2.9; inactive.
Knock-down of FAM216A came out at: two-siRNA summed score (-2 to +2) = 1; mean protection from cisplatin (shift in death) (%) = 12.6; inactive.
After knock-down of RLN3 the results were two-siRNA summed score (-2 to +2) = 0; mean protection from cisplatin (shift in death) (%) = 6; inactive.
Depletion of PHLDA1 came out at: two-siRNA summed score (-2 to +2) = 0; mean protection from cisplatin (shift in death) (%) = 0.6; inactive.
